Results on one substance are retold here after US5385888A (The Regents of the University of California, priority 1993, dated 1995).

HELM strings list residues between dots; [ac] is acetyl, [am] amide, other brackets name non-standard units.

The nature of the data set: peptide made by a vendor. As to conditions: whole synthesis, 214 and 278 nm.

Take “PEPTIDE1{E.R.E.T.Q.I.A.K.G.N.E.Q.S.F.R.V.D.L.R.T.L.L.R.Y.Y}$$$$V2.0”: the “final HPLC purity” value is “better than 97%”.
